Measurements reported in PubChem BioAssay AID1053208 (Peter MacCallum Cancer Centre, 2014).

- Assay: 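Synthetic lethal interactions between gene loss and doxorubicin in osteosarcoma cells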 (primary screen)
- Cells: mouse osteosarcoma cells, early-passage culture from an engineered mouse model of fibroblastic bone tumour
- Reagents: siRNA pool against mouse genes, 40 nM
- Duration: about 120 h (48 h before drug, then 72 h with drug)
- Treatment: doxorubicin 100 nM for 72 h, roughly 30-40% inhibitory dose
- Detection: 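Luminescent ATP signal taken as viability with or without 100 nM doxorubicin for 72 h; mean of two wells set against non-targeting siRNA and turned into robust z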
- Direction: viability z-score with doxorubicin: higher = more viable cells under doxorubicin; viability z-score without drug: higher = more viable cells with knock-down alone
- Call rule: 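a pool counts as active when its viability z-score with doxorubicin is -2 or below and its z-score without drug lies between -2 and 2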
Here is one part, drawn at random, of about 17,000 reagents. Over the whole deposit, 788 (4.7%) are marked active. 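Calls rest on z-score classes alone; an extra cut-off of viability at most 70% of control was not applied to them.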 A number with no mark means an inactive call. Further read-outs or replicates are left out here.

Which result is listed for Miga1 (mitoguardin 1)?
combined z-score class: no change with or without drug; viability z-score with doxorubicin: 0.45; viability z-score without drug: -0.17

What is on record for Myo15a (myosin XVA)?
combined z-score class: no change with or without drug; viability z-score with doxorubicin: 1.01; viability z-score without drug: 1.35

What did the screen give for Smap2 (small ArfGAP 2)?
combined z-score class: no change with or without drug; viability z-score with doxorubicin: 0.11; viability z-score without drug: 1.18

Which result is listed for Tex264 (testis expressed gene 264 ER-phagy receptor)?
combined z-score class: no change with or without drug; viability z-score with doxorubicin: 0.67; viability z-score without drug: -0.51

What did the screen give for Gphr (golgi pH regulator)?
combined z-score class: no change with or without drug; viability z-score with doxorubicin: 0.79; viability z-score without drug: -0.84

Which result is listed for Tdpoz5 (TD and POZ domain containing 5)?
combined z-score class: no change with or without drug; viability z-score with doxorubicin: 0.56; viability z-score without drug: -0.84

With Zfp365 (zinc finger protein 365), how do the results read?
combined z-score class: no change with or without drug; viability z-score with doxorubicin: -0.45; viability z-score without drug: 0.51

Quoted from the entries so far (2 entries):
Smap2 (small ArfGAP 2) → combined z-score class: no change with or without drug; viability z-score with doxorubicin: 0.11; viability z-score without drug: 1.18
Tex264 (testis expressed gene 264 ER-phagy receptor) → combined z-score class: no change with or without drug; viability z-score with doxorubicin: 0.67; viability z-score without drug: -0.51

More entries follow.
What is on record for A830073O21Rik (RIKEN cDNA A830073O21 gene)?
combined z-score class: no change with or without drug; viability z-score with doxorubicin: 0.34; viability z-score without drug: -0.51

What is on record for Trim36 (tripartite motif-containing 36)?
combined z-score class: high cell count without drug only; viability z-score with doxorubicin: 1.57; viability z-score without drug: 2.19

What did the screen give for Pip4p2 (phosphatidylinositol-4,5-bisphosphate 4-phosphatase 2)?
combined z-score class: no change with or without drug; viability z-score with doxorubicin: -0.67; viability z-score without drug: 0.17

How did the screen score Mrpl48 (mitochondrial ribosomal protein L48)?
combined z-score class: low cell count with and without drug; viability z-score with doxorubicin: -3.15; viability z-score without drug: -2.87

What did the screen give for Ca8 (carbonic anhydrase 8)?
combined z-score class: no change with or without drug; viability z-score with doxorubicin: -0.22; viability z-score without drug: 1.01
